± gives the standard error. Many of these values have a large error.
B1: glmS ribozyme (parent)
chain: AUAAAAGCGCCAGAACUACAGAAAUGUAGUUGACGAGGAGGAGGUUUAUCGAAUUUUCGGCGGAUGCCUCCAAA

Variants of: B1
Assay: self-cleavage kobs at 160 uM GlcN6P; higher = faster cleavage; RNA array
Conditions: with glucosamine-6-phosphate
Procedure, shortened: (§1)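 Tiles of sequenced MiSeq chips were imaged over ~14 h at 37 °C. On them, barcoded ribozyme variants had been transcribed in situ by E. coli RNA polymerase and were tracked via a hybridised Cy3 probe while glucosamine-6-phosphate (40 μM to 10 mM) in HEPES/KCl/Mg(OAc)2 buffer flowed in. Per-tile medians, normalised to baseline and to non-cleaving reference variants, were fit to one- or two-exponential decays for kobs, and weighted Michaelis–Menten fits gave kcat and KM.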

Row | Variant | self-cleavage kobs at 160 uM GlcN6P
1 | A52G C68G | 3.1e-05 ± 2.1e-05 s⁻¹
2 | G37A U55C U56G | 1.37e-05 ± 1.3e-05 s⁻¹
3 | U69A C71G | 2.29e-05 ± 1.6e-05 s⁻¹
4 | C10A G13A C50A C58U C71G | 0.00033 ± 0.00017 s⁻¹
5 | U30G C70G | 2.84e-05 ± 1.5e-05 s⁻¹
6 | A39C A52G | 2.3e-05 ± 2e-05 s⁻¹
7 | A53G G66C C71G | 2.85e-05 ± 2.1e-05 s⁻¹
8 | U31G G66C | 1.96e-05 ± 1.7e-05 s⁻¹
9 | C11A A36U C70G | 2.89e-05 ± 1.7e-05 s⁻¹
10 | C50U | < 1e-05 s⁻¹
11 | C10U C34A U47G C50G C67G | 2.78e-05 ± 2.1e-05 s⁻¹
12 | C16U G41A C71A | 2.37e-05 ± 1.9e-05 s⁻¹
13 | A39C U46A | 1.82e-05 ± 1.8e-05 s⁻¹
14 | C16U G37C G59U | 2.94e-05 ± 2.7e-05 s⁻¹
15 | G9C A12C C50G U65G C71U | 3.03e-05 ± 2.8e-05 s⁻¹
16 | A15U G66C C68A | 2.94e-05 ± 2.8e-05 s⁻¹
17 | G40A C67A | 3.11e-05 ± 2.2e-05 s⁻¹
18 | A15C U45C | 2.83e-05 ± 2.4e-05 s⁻¹

In a second layout: results already given

| Row | Variant | self-cleavage kobs at 160 uM GlcN6P |
| --- | --- | --- |
| 6 | A39C A52G | 2.3e-05 ± 2e-05 s⁻¹ |
| 9 | C11A A36U C70G | 2.89e-05 ± 1.7e-05 s⁻¹ |
| 15 | G9C A12C C50G U65G C71U | 3.03e-05 ± 2.8e-05 s⁻¹ |
| 17 | G40A C67A | 3.11e-05 ± 2.2e-05 s⁻¹ |
| 18 | A15C U45C | 2.83e-05 ± 2.4e-05 s⁻¹ |

Remaining list, next part:

Row | Variant | self-cleavage kobs at 160 uM GlcN6P
19 | A15G U47G G60A C61U C68A | 5.19e-05 ± 3.2e-05 s⁻¹
20 | C50A C67U | 2.01e-05 ± 1.2e-05 s⁻¹
21 | C10A A12C | 1.11e-05 ± 1e-05 s⁻¹
22 | C11A C71U | 2.13e-05 ± 1.9e-05 s⁻¹
23 | G41U U65A | 2.12e-05 ± 1.1e-05 s⁻¹
24 | U31G U56G C71A | 2.73e-05 ± 1.8e-05 s⁻¹
25 | A15G G51U C58G C71G | 2.83e-05 ± 1.9e-05 s⁻¹
26 | C70A C71A | 1.87e-05 ± 1.5e-05 s⁻¹
27 | G41A U54C | 3.01e-05 ± 2.2e-05 s⁻¹
28 | U45G A52G | 3.15e-05 ± 3.1e-05 s⁻¹
29 | G29A U31G U54G | 3.14e-05 ± 2.6e-05 s⁻¹
30 | G13U U54G C70G | 6.1e-05 ± 3.4e-05 s⁻¹
31 | A15C G66U | 1.79e-05 ± 1.3e-05 s⁻¹
32 | G13U U31A A36G G38A C50G U56C | 2.6e-05 ± 2.3e-05 s⁻¹
33 | U55A C68A C71G | 4.15e-05 ± 2.6e-05 s⁻¹
34 | A6C U31G U69G | 2.42e-05 ± 2.2e-05 s⁻¹
35 | C11U G40U | 1.65e-05 ± 1.6e-05 s⁻¹
36 | C50U C70U | 2.26e-05 ± 1.6e-05 s⁻¹

Variants of: B1
Assay: self-cleavage kobs at 2500 uM GlcN6P; higher = faster cleavage; RNA array
Conditions: with glucosamine-6-phosphate
Procedure, shortened: as §1

Row | Variant | self-cleavage kobs at 2500 uM GlcN6P
37 | A14C G44A U45A | 3.16e-05 ± 2.4e-05 s⁻¹
38 | A12U G29U | 0.0189 ± 0.013 s⁻¹
39 | A6U C16G U55A | 2.1e-05 ± 1.9e-05 s⁻¹
40 | G13U U49G | 1.99e-05 ± 1.2e-05 s⁻¹
41 | G13A G40U U45A | 1.74e-05 ± 1.5e-05 s⁻¹
42 | A12U G32A C71G | 3.46e-05 ± 2.5e-05 s⁻¹
43 | C16U G37C G59U | 5.45e-05 ± 3.8e-05 s⁻¹
44 | A14C G37C C68G | 3.54e-05 ± 3e-05 s⁻¹
45 | A14U U55A | 0.00268 ± 0.0014 s⁻¹
46 | A12U A42G A48G C68U | 3.42e-05 ± 2.9e-05 s⁻¹
47 | C50A C67U | 2.08e-05 ± 1e-05 s⁻¹
48 | G59U C67U U69A | 3.61e-05 ± 2.1e-05 s⁻¹
49 | A6U A15C C70U | 1.68e-05 ± 1.5e-05 s⁻¹
50 | C10A C11U A36U C70U C71G | 0.000106 ± 5.5e-05 s⁻¹
51 | A6U G37A | 0.00576 ± 0.0055 s⁻¹
52 | C10U C50G C68U C70G | 0.000236 ± 0.00013 s⁻¹
53 | C10G | < 1e-05 s⁻¹
54 | C10A C71G | 3.76e-05 ± 2e-05 s⁻¹
55 | C8G U30G G37A G66A U69G | 2.43e-05 ± 1.5e-05 s⁻¹
56 | G13A U49A U69A | 2.45e-05 ± 1.8e-05 s⁻¹
57 | A6C C50G | 2.65e-05 ± 1.9e-05 s⁻¹
58 | A12G A15C G40U | 2.68e-05 ± 2.4e-05 s⁻¹

Row | Variant | self-cleavage kobs at 2500 uM GlcN6P
59 | A12U G13U G32U A64G | 5.65e-05 ± 2.9e-05 s⁻¹
60 | G9U C50G U54A | 4.72e-05 ± 2.6e-05 s⁻¹
61 | C10U A12G C50G | 5.51e-05 ± 4.2e-05 s⁻¹
62 | A14U A48U | 2.25e-05 ± 1.6e-05 s⁻¹
63 | C10A A12U C68G | 3.71e-05 ± 2.6e-05 s⁻¹
64 | A6G A14G C16G A53U | 5.59e-05 ± 2.9e-05 s⁻¹
65 | C11A A15U C70G | 4.55e-05 ± 2.6e-05 s⁻¹
66 | C11U U57A C70U | 5.79e-05 ± 5e-05 s⁻¹
67 | A6U U30A U55G | 3.1e-05 ± 2e-05 s⁻¹
68 | A6U C50A U56C U57C C70G | 2.44e-05 ± 2.4e-05 s⁻¹
69 | C10G U47G C70U C71G | 2.57e-05 ± 2e-05 s⁻¹
70 | A6C U47C U54G | 3.11e-05 ± 2.9e-05 s⁻¹
71 | A15C C68A C71U | 2.22e-05 ± 2.1e-05 s⁻¹
72 | A12C U49G U56C | 2.33e-05 ± 1.7e-05 s⁻¹
73 | G13C U55A U69A | 3.36e-05 ± 3.1e-05 s⁻¹
74 | C10U G63C U65G C70A C71A | 2.7e-05 ± 2.6e-05 s⁻¹
75 | A12G A15U G40C | 2.99e-05 ± 1.7e-05 s⁻¹
76 | C10U U56A G62A U65A U69G | 3.13e-05 ± 2.1e-05 s⁻¹
77 | A6G U30A A53U | 3.29e-05 ± 1.8e-05 s⁻¹
78 | A12G G32C U47G U56G | 2.4e-05 ± 1.9e-05 s⁻¹
79 | A14G U30G C70U | 0.011 ± 0.0076 s⁻¹

Variants of: B1
Assay: self-cleavage kobs at 10000 uM GlcN6P; higher = faster cleavage; RNA array
Conditions: with glucosamine-6-phosphate
Procedure, shortened: as §1

Row | Variant | self-cleavage kobs at 10000 uM GlcN6P
80 | G13U U49G | 1.42e-05 ± 1.4e-05 s⁻¹
81 | C11A A36U C70G | 3.79e-05 ± 2e-05 s⁻¹
82 | A15G U47G G60A C61U C68A | 3.83e-05 ± 2.3e-05 s⁻¹
83 | A6U A15C C70U | 3.19e-05 ± 1.7e-05 s⁻¹
84 | C10G | < 1e-05 s⁻¹
85 | A6C C50G | 1.79e-05 ± 1.6e-05 s⁻¹
86 | A12G A15U G40C | 4.59e-05 ± 2.5e-05 s⁻¹

Variants of: B1
Assay: self-cleavage kobs at 640 uM GlcN6P; higher = faster cleavage; RNA array
Conditions: with glucosamine-6-phosphate
Procedure, shortened: as §1

Row | Variant | self-cleavage kobs at 640 uM GlcN6P
87 | G62A C68A | 1.9e-05 ± 1.6e-05 s⁻¹
88 | C68G U69G | 2.22e-05 ± 1.8e-05 s⁻¹
89 | G59U C67U U69A | 3.36e-05 ± 2e-05 s⁻¹
90 | A64U U69G | 4.27e-05 ± 2.3e-05 s⁻¹

Source: the supplement of paper PMC7125110
